Here are results for two compounds from US20250057864A1, “COMPOSITION FOR IMPROVING EXERCISE PERFORMANCE COMPRISING GYPENOSIDE COMPOUND AS ACTIVE INGREDIENT” (BTC CORPORATION, priority 2022, published 2025).

Each structure is given as a SMILES string.

Data set [1] is described as follows: Body weight of experimental animals, study with treadmill exercise. Type of data set: in vivo, ICR mice.
In the next data set the test system is ICR mice. Briefly: Weight of liver and muscles. The conditions noted are these: 6 weeks. Type of data set: in vivo. The method, then: After an acclimatization period of 1 week, healthy animals were selected and divided into 6 groups according to the randomized block design. The animals were divided into (G1) a non-exercise control group, (G2) a non-exercise+7 mg/kg body weight (BW) Example 1 group, (G3) a non-exercise+7 mg/kg BW Example 2 group, (G4) a non-exercise+7 mg/kg BW Example 3 group, (G5) a non-exercise+7 mg/kg BW Example 4 group, (G6) an exercise control group, (G7) an exercise+7 mg/kg BW Example 1 group, (G8) an exercise+7 mg/kg BW Example 2 group, (G9) an exercise+7 mg/kg BW Example 3 group, (G10) an exercise+7 mg/kg BW Example 4 group, and (G11) an exercise+75 mg/kg BW Cr dose group. Each test group consisted of 10 animals.
Before sacrificing, the experimental animal was anesthetized using an anesthetic prepared by dilution of tribromoethanol with tertiary amyl alcohol and blood was taken from the eye socket. The blood was placed in a serum-separating tube (Becton Dickinson) and left at room temperature for 30 minutes, centrifuged at 5,000 rpm for 10 minutes to separate the serum, and kept at −70° C. until analysis. After the blood sampling, the experimental animal was sacrificed and the liver and skeletal muscles [quadriceps femoris muscle (QF), gastrocnemius muscle (GA), soleus muscle (SOL), and extensor digitorum longus muscle (EDL)] were extracted. Their weight was measured after rinsing with cold physiological saline and removing excess water with filter paper. A portion of the soleus muscle (SOL) was fixed with 4% paraformaldehyde (PFA) and then embedded in paraffin for histoimmunological staining. Also, total RNA was isolated from a portion of the soleus muscle and subjected to real-time RT-PCR. Proteins were isolated from a portion of the gastrocnemius muscle (GA) and subjected to western blot. The remaining tissue was kept at −70° C. until analysis.
After the end of the test, the weight of the muscles and liver of the experimental animals was measured.
Since the body weight of the experimental animals was decreased due to exercise and the administration of the test substances, the relative weight of the muscles and liver per 100 g of body weight was calculated and shown in Table 23.

Setting [2] is: treadmill exercise, 7 mg/kg BW (Cr 75 mg/kg BW).

For the compound `CC(C)=CCC[C@](C)(O)C1CC[C@]2(C)C1[C@H](O)CC1[C@@]3(C)C[C@@H](O)C(OC4OC(CO)C(O)C(O)C4OC4OC(CO)C(O)C(O)C4O)C(C)(C)C3CC[C@]12C` (stereo partly drawn) [Example 1, Gypenoside L], in data set [1] (non-exercise, 7 mg/kg BW), the “Body weight Week 2” value amounted to 32.7 ± 0.7 g, the “Body weight Week 4” value is listed as 35.5 ± 1.0 g and the “Body weight Week 6” value came out at 37.9 ± 1.2 g. In data set [1] (setting [2]), the “Body weight Week 2” value was 30.5 ± 0.4 g, the “Body weight Week 4” value is given as 33.0 ± 0.5 g and the “Body weight Week 6” value worked out at 36.6 ± 0.7 g. For the same compound, in the data set with ICR mice (non-exercise, 7 mg/kg BW), the “Relative weight of liver” value came out at 4.92 g/100 g body weight and the Weight of liver was 1.87 g. Besides, in the data set on ICR mice (setting [2]), the “Relative weight of liver” value amounted to 5.07 g/100 g body weight and the Weight of liver amounted to 1.83 g.
Take `CN(CC(=O)O)C(=N)N.O` [Cr, Creatine monohydrate, reference compound]: in data set [1] (setting [2]), the “Body weight Week 2” value is recorded as 31.2 ± 0.6 g, the “Body weight Week 4” value stood at 34.0 ± 0.8 g and the “Body weight Week 6” value turned out to be 38.0 ± 1.0 g. Besides, in the data set with ICR mice (setting [2]), the “Relative weight of liver” value amounted to 5.49 g/100 g body weight and the Weight of liver was found to be 2.08 g.
